The list is a part of this screen's results and no random one: it is rich in T/C values a quarter to a half above the control, in often repeated tests (any T/C) and in doses without a T/C. Other doses and runs of a compound stand elsewhere. T/C gives the treated animals as a percentage of the vehicle group. Some entries give survivors of the animals treated and no T/C: the source holds a T/C of zero for them, seemingly a mark for toxic or unscored doses. Some survivor counts are full or nearly so, which does not show that the dose was tolerated: the source hardly ever lists a survival T/C far under the control, and the zero likely stands for such cases as well. Counts of survivors are from the toxicity check (mostly the fifth day) where no day follows; animals may have died later. Schedule codes are those of the source, taken here to give the interval after Q, in days (D) or hours (H), and the number of doses after X. Some doses were run more than once; their values stand side by side, smallest first. Some schedules carry Z or #; the key to these is not given. For survival time, the PubChem record calls one and a half times the control and up active, and a quarter to a half above the control has no call in these data; cut-offs in other NCI protocols can differ. Some T/C values carry the count of animals alive at the toxicity check (mostly the fifth day); without a count, all were alive then. Marks such as (2×) give the number of equal values in this list.
System: BDF1 mice, P388 leukemia ip, median survival T/C
Assay: NCI In Vivo Anticancer Drug Screen. Data for tumor model P388 Leukemia (intraperitoneal) in B6D2F1 (BDF1) mice
Settings: T/C endpoint: median survival time, higher T/C = longer survival
Procedure, shortened: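 In tumour-bearing mice, survival after compound treatment is set against the vehicle group and given as a quotient.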

[1] = dose: 7.0 mg/kg/injection, schedule: Q01DX001 (ip), vehicle: saline
[2] = dose: 14.0 mg/kg/injection, schedule: Q01DX001 (ip), vehicle: saline

Nc1ncnc2c1ccn2C1OC(CO)C(O)C1O (stereo not given)
T/C (dose: 0.16 mg/kg/injection, schedule: Q01DX010 (ip), vehicle: saline): 140 % of control
T/C (dose: 0.25 mg/kg/injection, schedule: Q#A X020 (ip), vehicle: saline): 141 % of control
T/C (dose: 0.31 mg/kg/injection, schedule: Q01DX010 (ip), vehicle: saline): 135 and 140 % of control
T/C (dose: 0.44 mg/kg/injection, schedule: Q07DX002 (ip), vehicle: saline): 145 % of control
T/C (dose: 0.5 mg/kg/injection, schedule: Q01DX010 (ip), vehicle: saline): 145 % of control
survivor count (dose: 0.5 mg/kg/injection, schedule: Q01DX010 (sc), vehicle: saline): 6 of 6
T/C (dose: 0.5 mg/kg/injection, schedule: Q#A X020 (ip), vehicle: saline): 145 % of control
T/C (dose: 0.63 mg/kg/injection, schedule: Q01DX010 (ip), vehicle: saline): 136, 140, 145, 150 % of control
T/C (dose: 0.88 mg/kg/injection, schedule: Q07DX002 (ip), vehicle: saline): 136 % of control
survivor count (dose: 1.0 mg/kg/injection, schedule: Q#A X020 (ip), vehicle: saline): 5 of 6
T/C (dose: 1.25 mg/kg/injection, schedule: Q01DX010 (ip), vehicle: saline): 105, 118, 150 % of control (2×)
survivor count (dose: 2.0 mg/kg/injection, schedule: Q01DX010 (oral), vehicle: saline): 4 of 6
T/C (dose: 2.0 mg/kg/injection, schedule: Q02DX005 (ip), vehicle: saline): 125 and 144 % of control [9 of 10 alive]
survivor count (dose: 2.0 mg/kg/injection, schedule: Q#A X002 (ip), vehicle: saline): 10 of 10
survivor count (dose: 2.0 mg/kg/injection, schedule: Q#A X020 (ip), vehicle: saline): 6 of 6
survivor count (dose: 2.5 mg/kg/injection, schedule: Q01DX010 (ip), vehicle: saline): 4 of 6 and 6 of 6
survivor count (dose: 3.5 mg/kg/injection, schedule: Q01DX001 (ip), vehicle: saline): 3 of 6
T/C (dose: 3.5 mg/kg/injection, schedule: Q07DX002 (ip), vehicle: saline): 136 % of control
T/C (dose: 3.5 mg/kg/injection, schedule: Q07DX010 (ip), vehicle: saline): 127 % of control [5 of 6 alive]
survivor count (dose: 4.0 mg/kg/injection, schedule: Q01DX006 (iv), vehicle: saline): 6 of 6
survivor count (dose: 4.0 mg/kg/injection, schedule: Q01DX010 (ip), vehicle: saline): 5 of 6
survivor count (dose: 4.0 mg/kg/injection, schedule: Q01DX010 (oral), vehicle: saline): 3 of 6 and 4 of 6
survivor count (dose: 4.0 mg/kg/injection, schedule: Q02DX005 (ip), vehicle: saline): 10 of 10
T/C (dose: 4.0 mg/kg/injection, schedule: Q04DX003 (ip), vehicle: saline): 133 % of control
survivor count (dose: 4.0 mg/kg/injection, schedule: Q07DX002 (ip), vehicle: saline): 9 of 10
survivor count (dose: 4.0 mg/kg/injection, schedule: Q#A X002 (ip), vehicle: saline): 8 of 10
survivor count (dose: 5.0 mg/kg/injection, schedule: Q01DX010 (ip), vehicle: saline): 2 of 6
survivor count (dose: 6.0 mg/kg/injection, schedule: Q03DX010 (ip), vehicle: saline): 6 of 6
T/C [1]: 127 % of control
survivor count [1]: 2 of 6
survivor count (dose: 7.0 mg/kg/injection, schedule: Q07DX010 (ip), vehicle: saline): 4 of 6
survivor count (dose: 8.0 mg/kg/injection, schedule: Q01DX001 (ip), vehicle: saline): 7 of 10 and 9 of 10
survivor count (dose: 8.0 mg/kg/injection, schedule: Q02DX005 (ip), vehicle: saline): 2 of 10
survivor count (dose: 8.0 mg/kg/injection, schedule: Q04DX003 (ip), vehicle: saline): 10 of 10
survivor count (dose: 8.0 mg/kg/injection, schedule: Q07DX002 (ip), vehicle: saline): 7 of 10
survivor count (dose: 8.0 mg/kg/injection, schedule: Q#A X002 (ip), vehicle: saline): 0 of 10
survivor count (dose: 12.0 mg/kg/injection, schedule: Q03DX010 (ip), vehicle: saline): 1 of 6
T/C [2]: 127 % of control
survivor count [2]: 0 of 6 and 6 of 6
survivor count (dose: 14.0 mg/kg/injection, schedule: Q07DX010 (ip), vehicle: saline): 4 of 6
survivor count (dose: 16.0 mg/kg/injection, schedule: Q01DX001 (ip), vehicle: saline): 0 of 10
survivor count (dose: 16.0 mg/kg/injection, schedule: Q01DX010 (im), vehicle: saline): 6 of 6
survivor count (dose: 16.0 mg/kg/injection, schedule: Q01DX010 (oral), vehicle: saline): 3 of 6
survivor count (dose: 16.0 mg/kg/injection, schedule: Q04DX003 (ip), vehicle: saline): 0 of 10
survivor count (dose: 16.0 mg/kg/injection, schedule: Q07DX002 (ip), vehicle: saline): 0 of 10
survivor count (dose: 28.0 mg/kg/injection, schedule: Q01DX001 (ip), vehicle: saline): 0 of 6 and 3 of 6
survivor count (dose: 28.0 mg/kg/injection, schedule: Q07DX010 (ip), vehicle: saline): 1 of 6
survivor count (dose: 32.0 mg/kg/injection, schedule: Q01DX001 (ip), vehicle: saline): 0 of 10
survivor count (dose: 32.0 mg/kg/injection, schedule: Q01DX001 (oral), vehicle: saline): 5 of 10
survivor count (dose: 32.0 mg/kg/injection, schedule: Q04DX003 (ip), vehicle: saline): 0 of 10
survivor count (dose: 32.0 mg/kg/injection, schedule: Q07DX002 (ip), vehicle: saline): 0 of 10
survivor count (dose: 64.0 mg/kg/injection, schedule: Q01DX001 (oral), vehicle: saline): 0 of 10
T/C (dose: 250.0 mg/kg/injection, schedule: Q#A X020 (ip), vehicle: saline): 136 % of control
T/C (dose: 500.0 micrograms/kg/injection, schedule: Q01DX010 (ip), vehicle: saline): 136 % of control

O=C(Nc1nncs1)c1ccncc1
T/C (dose: 100.0 mg/kg/injection, schedule: Q04DX002 (ip), vehicle: saline with Tween-80): 136 % of control
survivor count (dose: 600.0 mg/kg/injection, schedule: Q04DX002 (ip), vehicle: saline with Tween-80): 6 of 6

CN(C)C(=S)/N=c1\ss/c(=N/C(=S)N(C)C)n1-c1ccc([N+](=O)[O-])cc1
survivor count (dose: 50.0 mg/kg/injection, schedule: Q01DX009 (ip), vehicle: saline with Tween-80): 6 of 6
survivor count (dose: 100.0 mg/kg/injection, schedule: Q01DX009 (ip), vehicle: saline with Tween-80): 6 of 6
survivor count (dose: 200.0 mg/kg/injection, schedule: Q01DX009 (ip), vehicle: saline with Tween-80): 6 of 6

CS(=O)c1ncc2cnccn12 (stereo not given)
survivor count (dose: 400.0 mg/kg/injection, schedule: Q01DX009 (ip), vehicle: water): 0 of 6

Cc1cc(S(=O)(=O)c2ccc(Cl)cc2)nc(S(=O)(=O)c2ccc(Cl)cc2)c1C#N
survivor count (dose: 200.0 mg/kg/injection, schedule: Q01DX005 (ip), vehicle: saline with Tween-80): 3 of 5

C=C(Br)COCC
survivor count (dose: 80.0 mg/kg/injection, schedule: Q01DX009 (ip), vehicle: saline): 2 of 6
survivor count (dose: 185.0 mg/kg/injection, schedule: Q01DX001 (ip), vehicle: saline): 1 of 6

CC1CN1c1nc(N2CC2C)nc(N2CC2C)n1 (stereo not given)
survivor count (dose: 12.0 mg/kg/injection, schedule: Q01DX009 (ip), vehicle: saline): 3 of 6
survivor count (dose: 25.0 mg/kg/injection, schedule: Q04DX003 (ip), vehicle: saline): 3 of 6
survivor count (dose: 50.0 mg/kg/injection, schedule: Q04DX003 (ip), vehicle: saline): 0 of 6
survivor count (dose: 100.0 mg/kg/injection, schedule: Q04DX003 (ip), vehicle: saline): 0 of 6
survivor count (dose: 200.0 mg/kg/injection, schedule: Q04DX003 (ip), vehicle: saline): 0 of 6
survivor count (dose: 400.0 mg/kg/injection, schedule: Q04DX003 (ip), vehicle: saline): 0 of 6

O=[N+]([O-])c1cccc(Oc2ncccc2[N+](=O)[O-])c1
T/C (dose: 100.0 mg/kg/injection, schedule: Q04DX003 (ip), vehicle: Klucel (hydroxypropylcellulose) (HPC)): 140 % of control
